Values from PubChem BioAssay AID1159578 (Peter MacCallum Cancer Centre, 2015)
The whole screen tested about 18,000 reagents; below is an unselected part. About 1,030 of them (5.7%) were called active. 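Inactive calls also include pools with fewer than 3300 nuclei, whose migration was not assessed.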 Raw values are not corrected between plates. Unmarked entries are inactive. Further read-outs or replicates are left out here.

Aim: 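Knock-downs that alter how fast lymphatic endothelial cells migrate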 (primary screen)
System: human lymphatic endothelial cells
Reagent: siRNA pool against human genes, 40 nM
Duration: 48 h after transfection
Read-out: 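Cells stained with dye and imaged after a scratch; covered wound area and nuclei counted, duplicates averaged, migration set against mock wells and turned into a robust z-score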
Reading the numbers: migration robust z-score: higher = faster migration into the scratch; nuclei per well: higher = more cells in the well
Rule for the call: 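Pools averaging fewer than 3300 nuclei are never called; remaining pools count as changed when migration robust z lies outside -2 to 2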
Calls: active = migration changed; inactive = no migration change, or too few cells

After knock-down of CAPN11 the results were migration robust z-score 1.35; migration class with cell-count check migration z between -2 and 2; enough cells; nuclei per well, duplicate mean 5425.
Against GINS1, the values are migration robust z-score -0.58; migration class with cell-count check migration z between -2 and 2; enough cells; nuclei per well, duplicate mean 6276.
Silencing of VAMP1 came out at: migration robust z-score 0.82; migration class with cell-count check migration z between -2 and 2; enough cells; nuclei per well, duplicate mean 5893.
CPNE7 scored migration robust z-score 0.54; migration class with cell-count check migration z between -2 and 2; enough cells; nuclei per well, duplicate mean 7115.
Knock-down of DPM2 came out at: migration robust z-score -0.34; migration class with cell-count check migration z between -2 and 2; enough cells; nuclei per well, duplicate mean 5096.
Knock-down of LAMTOR1 resulted in: migration robust z-score -0.16; migration class with cell-count check migration z between -2 and 2; enough cells; nuclei per well, duplicate mean 6030.
Knock-down of HMGCR came out at: migration robust z-score 0.34; migration class with cell-count check migration z between -2 and 2; enough cells; nuclei per well, duplicate mean 5864.

Taken from above.
Result for GINS1 in “migration class with cell-count check”: migration z between -2 and 2; enough cells
Result of HMGCR in “migration robust z-score”: 0.34

More records follow.
After knock-down of AK5, the screen gave migration robust z-score -1.17; migration class with cell-count check under 3300 nuclei; migration not judged; nuclei per well, duplicate mean 2968.
For ADNP the deposit lists migration robust z-score 2.74 (active); migration class with cell-count check migration z above 2; enough cells; nuclei per well, duplicate mean 6506.
PGAP6 showed migration robust z-score -1.15; migration class with cell-count check migration z between -2 and 2; enough cells; nuclei per well, duplicate mean 6864.
With knock-down of OSBPL1A, the screen gave migration robust z-score -0.05; migration class with cell-count check migration z between -2 and 2; enough cells; nuclei per well, duplicate mean 7421.
Knock-down of HNRNPF resulted in: migration robust z-score -0.46; migration class with cell-count check migration z between -2 and 2; enough cells; nuclei per well, duplicate mean 4092.
DMBT1 gave migration robust z-score -0.06; migration class with cell-count check migration z between -2 and 2; enough cells; nuclei per well, duplicate mean 5998.
For SEC16B, the entry reads migration robust z-score 1.02; migration class with cell-count check migration z between -2 and 2; enough cells; nuclei per well, duplicate mean 5577.
For OR1J4, the entry reads migration robust z-score 0.36; migration class with cell-count check migration z between -2 and 2; enough cells; nuclei per well, duplicate mean 5428.
FCER2 showed migration robust z-score 0.52; migration class with cell-count check migration z between -2 and 2; enough cells; nuclei per well, duplicate mean 6222.
Knock-down of RFPL3 resulted in: migration robust z-score 0.72; migration class with cell-count check migration z between -2 and 2; enough cells; nuclei per well, duplicate mean 6735.
Against VTI1B, the entry reads migration robust z-score 0.98; migration class with cell-count check migration z between -2 and 2; enough cells; nuclei per well, duplicate mean 6850.
Knock-down of SV2B came out at: migration robust z-score 1.61; migration class with cell-count check migration z between -2 and 2; enough cells; nuclei per well, duplicate mean 4392.
BLTP3A showed migration robust z-score -0.24; migration class with cell-count check migration z between -2 and 2; enough cells; nuclei per well, duplicate mean 6409.
Knock-down of MAGEB2 resulted in: migration robust z-score 0.38; migration class with cell-count check migration z between -2 and 2; enough cells; nuclei per well, duplicate mean 5252.
